Assay results: US6486326B2, “iso-CBI and iso-CI analogs of CC-1065 duocarmycins” (The Scripps Research Institute, priority 1997, dated 2002)

Tested on: calf thymus DNA
Test: Calf thymus DNA alkylation, quantitation of adenine N3 adduct
Format: biochemical
Settings: 4° C.
Description: This was addressed through a study of the alkylation of calf thymus DNA. Optimized conditions for the alkylation were established for (−)-44 on an analytical scale (100 μg of agent). For this purpose, the long-wavelength UV absorption of the agent and the adduct provided a useful quantitative measure of the adenine adduct, unreacted starting material and any side products (solvolysis or rearrangement), Table 3. Analytical HPLC analysis was used to confirm the identity of the products through correlation of retention times and UV spectral data with authentic materials. The preparative DNA alkylation reaction and subsequent isolation of (+)-66 was carried out under conditions determined to provide complete consumption of the agent in the presence of a large excess of DNA Thus, extraction (EtOAc) of the aqueous buffer solution containing calf thymus DNA following alkylation (4° C., 72 h, 150 bp) afforded no recovered (−)-44, and only a small amount (<5%) of the rearranged product 65. Conducting the reaction at 4° C. in the presence of a large excess of DNA precluded competitive solvolysis. Thermal treatment of the alkylated DNA in aqueous 10 mM sodium phosphate buffer (100° C., 30 min, pH 7.0) followed by EtOAc extraction provided 66 in 90-95% conversion, ≧95% purity (by HPLC). Repeating this thermal treatment provided little or no additional adduct. No trace of a competing guanine adduct could be detected. This high conversion to a single adduct established that 44 participates exclusively in the adenine N3 alkylation reaction under the conditions examined.

Row | Structure (SMILES) | rearranged product 65 (72 h, 75 base-pair equiv, analytical scale, HPLC/UV) | rearranged product 65 (72 h, 150 base-pair equiv, analytical scale, HPLC/UV) | rearranged product 65 (72 h, 150 base-pair equiv, preparative scale) | rearranged product 65 (120 h, 150 base-pair equiv, preparative scale) | rearranged product 65 in EtOAc extract (72 h, 150 bp) | unreacted / recovered 44 (72 h, 150 bp) | unreacted / recovered 44 (72 h, 150 bp, listed as (−)-44)
1 | COc1cc2cc(C(=O)N3CC4CC45C(=O)c4ccccc4C=C35)[nH]c2c(OC)c1OC (racemic) [compound 44, 2-[(5,6,7-Trimethoxyindol-2-yl)carbonyl]-1,2,9,9a-tetrahydrocyclopropa[c]benzo[f]indol-8-one] | <5% | <5% | <5% | <5% | – | – | –
2 | COc1cc2cc(C(=O)N3CC4CC45C(=O)c4ccccc4C=C35)[nH]c2c(OC)c1OC (single isomer, unassigned; (-)) [(−)-iso-CBI-TMI, 2-[(5,6,7-Trimethoxyindol-2-yl)carbonyl]-1,2,9,9a-tetrahydrocyclopropa[c]benzo[f]indol-8-one] | – | – | – | – | < 5% | 0% | no recovered
